One assay has as its system mouse neutrophils. Put plainly: ROS inhibition in mouse neutrophils. It counts as cell-based. The conditions noted are these: Neutrophil, average of several experiments. The source says:
Bosutinib, Stelazine, Clomipramine, Abemaciclib, Afatanib and Dyclonine were selected for further characterization. […] PMA was again used to stimulate ROS production in neutrophils and the effects of the drugs were monitored at increasing concentration levels. […] The molecules were all also effective in mouse neutrophils although to a generally lesser extent (FIG. 2B and Table 2).

The next assay has as its system human neutrophils. Put plainly: ROS production by PMA-stimulated purified human neutrophils. The conditions noted are these: Neutrophil, average of several experiments, read-out: ROS Inhibition IC50. It counts as cell-based. The method, then: Following blood withdrawal, blood was overlaid on 3% dextran in 0.9% NaCl in a 1:1 ratio and left at RT for 25 min to allow erythrocyte sedimentation. Residual RBCs were lysed by adding water for 30 sec and stopped by adding 2.5% BSA/5×PBS. WBCs were then diluted in 0.5% BSA/1×PBS and total number of cells was counted. Purification of pure neutrophils (HDNs) was done by overlaying blood after RBC sedimentation in a 1:1 ratio on Histopaque-1077. After 30 min centrifugation at 400 g, pure neutrophils were found at the bottom of the tube (pellet). Mononuclear cells (LDF—low density fraction) settle between the Histopaque-1077 and the 0.9% saline.
A high-throughput screen was performed to find molecules that inhibit ROS production by neutrophils. Extracted human neutrophils were purified and kept in culture. The cells were then exposed to various drugs and ROS production was monitored over time. Compounds that also scavenged hydrogen peroxide (H2O2) and/or lowered neutrophil ATP levels (reflecting toxicity) were removed. The top hits from the screen were selected for further analysis. […]
Bosutinib, Stelazine, Clomipramine, Abemaciclib, Afatanib and Dyclonine were selected for further characterization. […] PMA was again used to stimulate ROS production in neutrophils and the effects of the drugs were monitored at increasing concentration levels. […]

Broadly, the IC50 is the point on the concentration scale where inhibition reaches its midpoint. For the compound `CN(C)CCCN1c2ccccc2CCc2ccc(Cl)cc21` [Clomipramine], the IC50 was found to be 3.5 µM in the assay with mouse neutrophils and 1000 nM with human neutrophils.
